The text below walks through data of paper PMC8051072.

By UniProt entry, the sequences of proteins in these tests, tags left out.
UniProt P35222: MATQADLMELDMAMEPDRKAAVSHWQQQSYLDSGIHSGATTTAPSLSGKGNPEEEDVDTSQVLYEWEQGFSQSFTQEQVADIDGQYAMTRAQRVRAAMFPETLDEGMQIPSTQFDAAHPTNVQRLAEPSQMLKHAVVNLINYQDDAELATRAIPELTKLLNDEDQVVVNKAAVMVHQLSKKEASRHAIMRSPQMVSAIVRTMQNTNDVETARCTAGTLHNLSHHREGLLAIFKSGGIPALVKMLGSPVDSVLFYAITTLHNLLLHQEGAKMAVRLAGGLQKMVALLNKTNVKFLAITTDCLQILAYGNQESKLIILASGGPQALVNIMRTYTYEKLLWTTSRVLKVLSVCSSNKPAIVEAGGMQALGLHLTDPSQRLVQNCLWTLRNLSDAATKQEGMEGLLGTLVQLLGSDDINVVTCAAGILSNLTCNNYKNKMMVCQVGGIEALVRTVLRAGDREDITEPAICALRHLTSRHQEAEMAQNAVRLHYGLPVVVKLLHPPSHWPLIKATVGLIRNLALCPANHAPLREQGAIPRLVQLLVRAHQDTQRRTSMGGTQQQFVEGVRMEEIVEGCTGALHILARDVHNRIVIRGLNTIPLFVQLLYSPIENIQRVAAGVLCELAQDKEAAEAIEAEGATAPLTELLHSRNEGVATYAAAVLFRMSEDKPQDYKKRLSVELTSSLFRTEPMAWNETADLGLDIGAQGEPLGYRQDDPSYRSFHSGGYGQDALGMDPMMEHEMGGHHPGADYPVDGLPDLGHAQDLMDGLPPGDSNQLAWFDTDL
UniProt P25054: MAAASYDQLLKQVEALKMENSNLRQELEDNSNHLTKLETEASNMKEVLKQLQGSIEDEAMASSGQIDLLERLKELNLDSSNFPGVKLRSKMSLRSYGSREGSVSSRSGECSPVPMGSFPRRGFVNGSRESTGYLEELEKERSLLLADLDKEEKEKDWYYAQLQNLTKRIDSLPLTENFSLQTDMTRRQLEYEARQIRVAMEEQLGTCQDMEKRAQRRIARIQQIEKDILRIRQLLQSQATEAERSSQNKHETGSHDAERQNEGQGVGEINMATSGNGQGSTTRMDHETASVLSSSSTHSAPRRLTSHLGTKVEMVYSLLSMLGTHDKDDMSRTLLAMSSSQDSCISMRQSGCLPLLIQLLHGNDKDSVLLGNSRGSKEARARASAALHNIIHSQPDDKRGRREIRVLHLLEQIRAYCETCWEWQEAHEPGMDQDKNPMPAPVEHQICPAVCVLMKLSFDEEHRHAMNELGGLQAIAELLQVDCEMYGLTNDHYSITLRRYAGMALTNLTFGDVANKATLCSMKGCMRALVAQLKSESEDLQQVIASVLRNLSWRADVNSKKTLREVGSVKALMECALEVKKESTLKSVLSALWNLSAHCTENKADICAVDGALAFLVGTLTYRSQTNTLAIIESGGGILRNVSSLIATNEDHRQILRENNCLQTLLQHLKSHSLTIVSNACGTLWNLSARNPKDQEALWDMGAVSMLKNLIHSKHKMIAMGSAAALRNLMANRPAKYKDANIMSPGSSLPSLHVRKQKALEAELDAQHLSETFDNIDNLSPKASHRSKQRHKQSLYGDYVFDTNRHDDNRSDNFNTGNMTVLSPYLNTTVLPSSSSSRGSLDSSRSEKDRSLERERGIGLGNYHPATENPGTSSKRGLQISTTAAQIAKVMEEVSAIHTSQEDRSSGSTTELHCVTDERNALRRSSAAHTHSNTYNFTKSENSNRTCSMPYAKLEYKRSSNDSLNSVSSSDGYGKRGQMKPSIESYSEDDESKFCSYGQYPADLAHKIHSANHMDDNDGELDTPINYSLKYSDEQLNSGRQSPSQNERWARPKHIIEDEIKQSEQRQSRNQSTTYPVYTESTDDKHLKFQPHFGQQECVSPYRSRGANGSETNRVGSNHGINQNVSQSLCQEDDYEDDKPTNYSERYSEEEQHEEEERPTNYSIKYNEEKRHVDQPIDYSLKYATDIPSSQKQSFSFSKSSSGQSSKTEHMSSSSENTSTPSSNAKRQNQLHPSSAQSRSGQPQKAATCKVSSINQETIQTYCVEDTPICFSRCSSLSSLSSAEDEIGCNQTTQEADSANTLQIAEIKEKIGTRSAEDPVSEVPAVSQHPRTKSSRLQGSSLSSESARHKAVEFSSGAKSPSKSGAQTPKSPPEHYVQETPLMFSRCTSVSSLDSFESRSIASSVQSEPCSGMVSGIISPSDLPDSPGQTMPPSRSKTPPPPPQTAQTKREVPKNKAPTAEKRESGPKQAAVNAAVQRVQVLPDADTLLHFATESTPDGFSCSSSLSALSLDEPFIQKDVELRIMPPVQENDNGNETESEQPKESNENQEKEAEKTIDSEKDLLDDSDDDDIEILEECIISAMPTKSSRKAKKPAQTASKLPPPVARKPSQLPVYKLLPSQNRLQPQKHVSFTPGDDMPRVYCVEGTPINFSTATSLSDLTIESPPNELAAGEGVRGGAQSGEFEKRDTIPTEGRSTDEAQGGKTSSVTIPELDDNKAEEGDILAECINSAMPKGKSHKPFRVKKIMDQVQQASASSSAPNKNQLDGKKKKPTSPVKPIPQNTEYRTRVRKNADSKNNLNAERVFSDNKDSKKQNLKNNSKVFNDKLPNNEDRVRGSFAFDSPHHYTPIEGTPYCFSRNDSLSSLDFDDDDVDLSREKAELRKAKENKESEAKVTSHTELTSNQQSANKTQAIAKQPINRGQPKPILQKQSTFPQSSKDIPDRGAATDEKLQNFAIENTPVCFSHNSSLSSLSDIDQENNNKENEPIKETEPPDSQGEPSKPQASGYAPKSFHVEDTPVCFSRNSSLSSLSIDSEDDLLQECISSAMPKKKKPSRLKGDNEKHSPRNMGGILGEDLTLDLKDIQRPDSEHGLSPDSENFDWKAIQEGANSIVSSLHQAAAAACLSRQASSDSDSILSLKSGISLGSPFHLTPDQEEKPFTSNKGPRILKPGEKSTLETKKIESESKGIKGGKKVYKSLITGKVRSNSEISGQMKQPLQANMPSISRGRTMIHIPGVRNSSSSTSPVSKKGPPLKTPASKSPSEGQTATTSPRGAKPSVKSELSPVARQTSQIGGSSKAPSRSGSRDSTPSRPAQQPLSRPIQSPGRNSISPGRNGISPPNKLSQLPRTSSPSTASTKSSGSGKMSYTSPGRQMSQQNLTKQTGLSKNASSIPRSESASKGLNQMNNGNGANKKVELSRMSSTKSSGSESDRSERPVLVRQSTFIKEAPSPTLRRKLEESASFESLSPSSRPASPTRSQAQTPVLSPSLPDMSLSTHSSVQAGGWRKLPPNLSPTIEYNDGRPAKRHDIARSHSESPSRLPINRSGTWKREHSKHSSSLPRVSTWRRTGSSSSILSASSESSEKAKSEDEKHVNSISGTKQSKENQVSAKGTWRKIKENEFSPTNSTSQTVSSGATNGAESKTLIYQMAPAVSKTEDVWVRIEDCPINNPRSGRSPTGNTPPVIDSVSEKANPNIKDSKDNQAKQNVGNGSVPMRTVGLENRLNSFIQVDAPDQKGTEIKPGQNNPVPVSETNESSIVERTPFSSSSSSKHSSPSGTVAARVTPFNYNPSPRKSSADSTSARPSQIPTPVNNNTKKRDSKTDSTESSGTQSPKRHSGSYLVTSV
UniProt O15169: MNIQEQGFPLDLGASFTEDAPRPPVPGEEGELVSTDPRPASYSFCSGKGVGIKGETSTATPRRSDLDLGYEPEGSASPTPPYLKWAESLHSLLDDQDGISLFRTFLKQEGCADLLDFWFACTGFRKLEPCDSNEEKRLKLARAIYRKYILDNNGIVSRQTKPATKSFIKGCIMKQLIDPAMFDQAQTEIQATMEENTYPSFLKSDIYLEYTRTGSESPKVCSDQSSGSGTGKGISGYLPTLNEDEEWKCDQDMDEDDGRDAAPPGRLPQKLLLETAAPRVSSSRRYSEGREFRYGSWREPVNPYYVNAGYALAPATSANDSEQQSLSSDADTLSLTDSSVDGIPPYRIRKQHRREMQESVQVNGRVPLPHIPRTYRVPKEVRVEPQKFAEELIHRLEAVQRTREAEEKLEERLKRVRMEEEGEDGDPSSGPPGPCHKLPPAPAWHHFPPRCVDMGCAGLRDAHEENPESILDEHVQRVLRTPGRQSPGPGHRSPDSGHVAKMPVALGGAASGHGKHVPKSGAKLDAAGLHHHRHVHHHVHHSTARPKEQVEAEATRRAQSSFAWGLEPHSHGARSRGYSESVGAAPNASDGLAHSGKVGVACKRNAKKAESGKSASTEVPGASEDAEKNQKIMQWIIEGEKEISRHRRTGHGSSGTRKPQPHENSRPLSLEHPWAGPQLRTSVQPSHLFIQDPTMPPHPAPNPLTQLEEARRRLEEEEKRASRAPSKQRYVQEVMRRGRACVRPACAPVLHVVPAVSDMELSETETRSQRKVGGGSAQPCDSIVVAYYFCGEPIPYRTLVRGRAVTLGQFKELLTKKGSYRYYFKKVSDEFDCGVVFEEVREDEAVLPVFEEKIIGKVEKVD

Assay [1] addresses β-catenin (endogenous) (human (endogenous in DLD1 and HT29)) (UniProt P35222). Kind of assay: co-IP; anti-β-catenin antibody; lysates of HT29 or DLD1 cells transfected with Flag-Sec62 or its mutants, or of Sec62-depleted and control cells; Buffer A, antibody on protein A-Sepharose, 2 h at 4 °C.
Assay [2] addresses APC (wild-type, endogenous in RKO cells) (human (endogenous in RKO)) (UniProt P25054). Kind of assay: co-IP; anti-APC antibody; lysates of DLD1 cells, or of RKO cells cultured with Wnt3a medium, transfected with Flag-Sec62 or Flag vector; Buffer A, antibody on protein A-Sepharose, 2 h at 4 °C.
In another assay the target is T1, GST-Sec62 (UniProt Q99442).
T1 sequence: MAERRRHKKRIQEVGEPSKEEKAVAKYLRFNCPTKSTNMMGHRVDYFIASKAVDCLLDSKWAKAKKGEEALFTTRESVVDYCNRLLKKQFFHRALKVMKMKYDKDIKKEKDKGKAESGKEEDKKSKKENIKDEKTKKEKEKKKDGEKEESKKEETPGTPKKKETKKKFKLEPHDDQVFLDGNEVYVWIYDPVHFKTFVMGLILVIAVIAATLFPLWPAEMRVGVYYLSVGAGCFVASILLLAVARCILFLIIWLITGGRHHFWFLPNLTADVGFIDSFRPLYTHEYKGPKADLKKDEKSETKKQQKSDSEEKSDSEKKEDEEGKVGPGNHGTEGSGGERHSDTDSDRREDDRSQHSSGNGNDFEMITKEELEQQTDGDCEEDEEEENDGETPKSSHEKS
Kind of assay: pull-down; GST pull-down with GST-Sec62, its deletion mutants or GST-Sec62 DA and His-β-catenin; both purified.

Assay [3] deals with T2, Sec62 (endogenous) (human (endogenous in DLD1)) (UniProt Q99442).
T2 sequence: T1 sequence
Briefly: co-IP; endogenous proteins; DLD1 lysates immunoprecipitated with anti-Sec62 or anti-β-catenin antibody; Buffer A (25 mM Tris-Cl pH 7.5, 150 mM KCl, 1 mM DTT, 2 mM EDTA, 0.5 mM PMSF, 0.2% Nonidet P-40), antibody on protein A-Sepharose, 2 h at 4 °C.

No constants are given. Whether binding was seen depends on the method and setting. For some of these results: In cells and extracts the contact can be indirect. Some results given as binding are weak or reduced against the parent protein; the word gives no strength. For some of these results: Where a sequence is shown, tags or fusion partners need not be part of it.

With AXIN1 (from UniProt O15169 1-862), the binding entry in assay [1] and in assay [2] was “binds” throughout. As for “His-β-catenin (from UniProt P35222 1-781)”, in the assay with GST-Sec62, the binding result is “binds”. Regarding “β-catenin (endogenous) (from UniProt P35222 1-781)”, the binding result in assay [3] is reported as “binds”.
